Experimental data: patent US9752151B2, “Composition for treatment or metastasis suppression of cancers which includes p34 expression inhibitor or activity inhibitor as active ingredient” (THE ASAN FOUNDATION, priority 2013, dated 2017)
No constants are given. Whether binding was seen depends on the method and setting. Binding seen in cells or lysates may run through a third protein. Here binding means that the protein was enriched with, or labelled near, the bait; the list need not be complete.

Biological target: neuronal precursor cell-expressed developmentally down-regulated 4-1 (NEDD4-1), endogenous, in lysates of human cell lines (human) (UniProt P46934)
Assay: immunoprecipitation with anti-NEDD4-1 antibody from cell lysates, tandem affinity purification and mass spectrometry (FIG. 1)

binding: binds
B1: p34 protein (endogenous, in lysates of human cancer cell lines) (protein, UniProt Q9UHV2 1-236, looked up)
chain: MLSKGLKRKREEEEEKEPLAVDSWWLDPGHTAVAQAPPAVASSSLFDLSVLKLHHSLQQSEPDLRHLVLVVNTLRRIQASMAPAAALPPVPSPPAAPSVADNLLASSDAALSASMASLLEDLSHIEGLSQAPQPLADEGPPGRSIGGAAPSLGALDLLGPATGCLLDDGLEGLFEDIDTSMYDNELWAPASEGLKPGPEDGPGKEEAPELDEAELDYLMDVLVGTQALERPPGPGR
